The list shows a part of the results. Shown are side measurements of this screen, not its main read-out; they come without a call. Compounds called inactive in the main read-out are mostly missing here. The note in brackets gives the kind of curve behind each potency; many fits are weak.
Test: qHTS Assay to Find Inhibitors of Chronic Active B-Cell Receptor Signaling
Conditions: ABC-DLBCL IkBa-CBG/CBR reporter, luminescence ratio (green luciferase fused to IkBa over red control in TMD8 lymphoma cells), 4 h
How it was run: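 Compounds up to 46 uM were incubated four hours with TMD8 cells whose green CBG68 luciferase is fused to IkappaBalpha; red CBR luminescence normalised the signal, and concentration-effect curves were fitted to fusion, red and ratio data.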

[1] = measured here: CBR red luminescence, cell number
[2] = measured here: IkBa-CBG green luminescence

Structure (SMILES) | AC50 [1] | AC50 [2]
CC1CC(OC(=O)c2ccccc2)(c2ccccc2)C(C)CN1C (centres undefined) | 3.16 µM [rising, partial curve, poor fit] | –
CCOC(=O)c1c(-c2ccc(OC)cc2)oc2ccc(OC(=O)N(C)C)cc12 | 20.6 µM [falling, single point] | –
CCN(CCCNS(=O)(=O)c1ccc2c(c1)oc(=O)n2C)c1cccc(C)c1 | 14.6 µM [falling, partial curve] | –
CCCNC1=C(C)C(=O)C2=C(C1=O)C(COC(N)=O)[C@]1(OC)C3NC3CN21 (some centres undefined) | 12.6 µM [rising, partial curve, poor fit] | –
C[C@H]1CCC/C=C/C2C[C@H](O)CC2[C@H](O)/C=C/C(=O)O1 (some centres undefined) | 0.501 µM [falling, full curve, poor fit] | –
N#CC1=C(N)Oc2c(c(=O)oc3ccccc23)C1c1ccc(OC(=O)N2CCOCC2)cc1 (centres undefined) | 0.631 µM [falling, full curve, poor fit] | –
O=C(c1ccc2c(c1)ncn2C1CCCCC1)N1CCC2(CC1)OCCO2 | 35.5 µM [rising, single point] | 35.5 µM [falling, partial curve, poor fit]
Cc1cc(/C=C2\SC(=S)NC2=O)c(C)n1-c1ccc(O)cc1 | 17.8 µM [falling, partial curve, poor fit] | –
Cc1ccc(Cl)cc1N1CCN(CCN)CC1 | 2.91 µM [falling, single point] | –
Cc1cc(N)n(C2CCN(C)CC2)n1 | 14.1 µM [rising, partial curve, poor fit] | –
Cc1ccc(-c2cc(C(F)F)n3ncc(C(=O)N4CCC5(CC4)OCCO5)c3n2)cc1 | 0.0517 µM [rising, full curve, poor fit] | –
CCCCC(CC)COCCCN=Cc1c(O)[nH]c(=S)[nH]c1=O (centres undefined) | 2.51 µM [falling, partial curve, poor fit] | –
CC(=O)c1cccc(NC(=O)CCC2CCCC2)c1 | 3.55 µM [rising, single point] | –
O=c1nc(/C=C/c2ccc(Cl)cc2Cl)cc(C(F)(F)F)[nH]1 | 2.51 µM [rising, partial curve, poor fit] | –
O=C(N/N=C/c1c(O)n(C2CC2)c(=S)[nH]c1=O)c1ccccc1O | 1.64 µM [falling, full curve] | –
Fc1ccc(CN2CCN(c3ccc(Cl)cc3)CC2)cc1 | 15.8 µM [rising, partial curve, poor fit] | –
O=C(NC(=O)c1c(F)cccc1F)Nc1ccccc1SC(F)F | 7.08 µM [falling, full curve, poor fit] | –
CC(C)OCCCNC(=O)c1c(N)n(CC2CCCO2)c2nc3ccccc3nc12 (centres undefined) | 14.6 µM [falling, single point] | –
COc1ccc(-[n+]2c(-c3ccccc3)cc(-c3ccc(C)cc3)cc2-c2ccccc2)cc1 | 11.2 µM [falling, single point] | –
CN[C@@H]1C[C@@H](c2ccc(Cl)c(Cl)c2)c2ccccc21 | 11.2 µM [falling, partial curve, poor fit] | 35.5 µM [rising, partial curve, poor fit]
CCC(C)NC(=O)c1c(N)n(Cc2ccc3c(c2)OCO3)c2nc3ccccc3nc12 (centres undefined) | 5.01 µM [falling, full curve, poor fit] | –

Single records, from the list above. Values in the order: AC50 [1]	AC50 [2]
`O=C(NC(=O)c1c(F)cccc1F)Nc1ccccc1SC(F)F` in the list: 7.08 µM [falling, full curve, poor fit]	–
`O=c1nc(/C=C/c2ccc(Cl)cc2Cl)cc(C(F)(F)F)[nH]1` in the list: 2.51 µM [rising, partial curve, poor fit]	–
`Cc1ccc(-c2cc(C(F)F)n3ncc(C(=O)N4CCC5(CC4)OCCO5)c3n2)cc1` in the list: 0.0517 µM [rising, full curve, poor fit]	–
`O=C(c1ccc2c(c1)ncn2C1CCCCC1)N1CCC2(CC1)OCCO2` in the list: 35.5 µM [rising, single point]	35.5 µM [falling, partial curve, poor fit]

Next records:

Structure (SMILES) | AC50 [1] | AC50 [2]
CN(C)C(Cc1ccc(C#N)cc1)C(=O)c1ccccc1 (centres undefined) | 10.3 µM [rising, partial curve] | –
Oc1ccccc1CN(CCc1ccccc1)Cc1ccccc1 | 28.2 µM [rising, single point] | –
O=c1[nH]c(=S)[nH]c(O)c1N=Nc1ccc2c(c1)OCO2 | 2.82 µM [falling, full curve] | –
O=C(N/N=C/c1c(O)n(Cc2ccco2)c(=O)[nH]c1=O)c1ccccc1O | 2.82 µM [falling, full curve] | –
C=CCOC(=O)c1ccccc1C(=O)OCC=C | 18.4 µM [rising, partial curve, poor fit] | –
CN1CCN(c2ccc([N+](=O)[O-])c3no[n+]([O-])c23)CC1 | 6.31 µM [falling, full curve, poor fit] | 2.51 µM [rising, full curve, poor fit]
CCOCC(=O)NC1CCSC1=O (centres undefined) | 35.5 µM [rising, partial curve, poor fit] | –
CCN(CC)C(=O)Oc1ccc2cc(Br)ccc2c1 | 0.731 µM [rising, partial curve] | –
O=C(N/N=C/c1c(O)n(Cc2ccccc2)c(=O)[nH]c1=O)c1ccccc1O | 2.59 µM [falling, full curve] | –
O=C(C(=O)N1CCOCC1)c1cn(Cc2ccccc2F)c2ccccc12 | 14.1 µM [falling, partial curve, poor fit] | –
C=CCN1C(=O)/C(=C/c2cc(C)n(-c3cccnc3)c2C)C(=O)NC1=S | 6.51 µM [rising, single point] | –
CC1CN=C(Nc2ccc(F)c(Cl)c2)S1 (centres undefined) | 11.2 µM [rising, partial curve, poor fit] | –
CCOP(=O)(OCC)Oc1cc(C)c(N(C)C)c(C)c1 | 22.4 µM [rising, single point] | –
C1CNC2NCCNC2N1 (centres undefined) | 2.82 µM [rising, partial curve, poor fit] | –
CCCCCCCCCCOC(=O)Cn1c(COc2ccc(OC)cc2)[n+](C)c2ccccc21 | 35.5 µM [falling, single point] | –
CCOP(=S)(OCC)N1CCOCCOCCN(P(=S)(OCC)OCC)CCOCCOCC1 | 17.8 µM [falling, single point] | –
C#C[C@]1(O)CC[C@H]2[C@@H]3CCC4=Cc5nc6nc7ccccc7n6cc5C[C@]4(C)[C@H]3CC[C@@]21C | 29.1 µM [falling, single point] | –
Fc1ccc(-c2nc3c(-c4ccc(F)cc4)cnn3cc2CCN2CCOCC2)cc1 | 11.2 µM [falling, partial curve] | –
O=P(O)(O)C#Cc1ccccc1 | 32.6 µM [rising, single point] | –
CC(C)(C)c1ccc(C(=O)C2CCCN(C3CCC3)C2)cc1 (centres undefined) | 11.2 µM [rising, partial curve, poor fit] | –
Nc1ccccc1C(=O)c1ccccc1 | 9.2 µM [rising, single point] | –

Structure (SMILES) | AC50 [1] | AC50 [2]
Cc1cc([N+](=O)[O-])c2ccccc2[n+]1[O-] | 12.6 µM [falling, single point] | –
Cc1ccc(-c2csc(N3CCN(CCCn4c(-c5ccncc5)nc5ccccc54)CC3)n2)cc1 | 12.6 µM [falling, partial curve, poor fit] | –
Cc1cc(C)cc(N2C(=O)/C(=C\c3ccc(N4CCN(C)CC4)o3)C(=O)NC2=S)c1 | 11.2 µM [rising, partial curve, poor fit] | –
Cc1cc(NC(=O)CCl)nn1C | 11.2 µM [falling, partial curve, poor fit] | –
CN(C)c1ccc(P(=O)(OCc2ccccc2)C(O)c2ccncc2)cc1 (centres undefined) | 3.16 µM [rising, single point] | –
CN(C)CC/C=C1/c2ccccc2Sc2ccc(Cl)cc21 | 32.6 µM [falling, partial curve, poor fit] | –
CCCC[N+]1(C)[C@@H]2CC(OC(=O)[C@H](CO)c3ccccc3)C[C@H]1[C@@H]1O[C@@H]12 (some centres undefined) | 4.47 µM [rising, partial curve] | –
CCOC(=O)c1ccc(Nc2nc(C(=O)OCC)nc3ccccc23)cc1 | 22.4 µM [falling, single point] | –
Cn1ccnc1Sc1nc2ccccc2nc1NS(=O)(=O)c1ccccc1 | 11.2 µM [falling, partial curve, poor fit] | –
CCOc1ccc(/C=N/n2cc(-c3ccccc3)[nH]c2=S)cc1 | 2.82 µM [rising, partial curve] | –
O=[N+]([O-])c1ccc(N2CCCCC2)c2ncccc12 | 35.5 µM [rising, partial curve, poor fit] | –
CCN(CC)C(=O)c1ccc(N(Cc2ccccc2)S(C)(=O)=O)cc1 | 35.5 µM [rising, single point] | –
Cn1cccc1/C=C1\C(=O)NC(=O)N(Cc2ccccc2Cl)C1=O | 35.5 µM [rising, single point] | 35.5 µM [falling, single point]
CC(NCc1ccc(Cl)cc1Cl)C(O)c1ccccc1 (centres undefined) | 7.08 µM [rising, partial curve, poor fit] | –
CC[C@@]1(O)C(=O)OCc2c1cc1n(c2=O)Cc2cc3ccccc3nc2-1 | 1.41 µM [falling, full curve] | –
Cc1ccc(C(=O)C2CN3CCC2CC3)cc1 (centres undefined) | 18.4 µM [rising, single point] | –
CCN(CC)Cc1c[nH]c2ccccc12 | 7.08 µM [falling, full curve, poor fit] | –
CNC(=O)Oc1cccc(-c2cn3cc(Cl)ccc3n2)c1 | 18.4 µM [falling, single point] | –
Nc1c(C(=O)NCC2CCCO2)c2nc3ccccc3nc2n1Cc1ccco1 (centres undefined) | 0.501 µM [falling, full curve, poor fit] | 0.141 µM [rising, full curve, poor fit]
CCOc1ccc(C(C)=O)cc1Cn1c(=O)oc2ccccc21 | 10 µM [falling, partial curve] | –
CC(=O)Cc1c[nH]c2ccccc12 | 35.5 µM [rising, single point] | 20 µM [falling, partial curve, poor fit]
